For one substance, binding results are on record in article PMC5467174.

Sequences of proteins named here, by UniProt entry; tags and fusion partners are left off. A change or cut given only in a name is not applied to a line headed by its entry.
UniProt Q9HCJ0: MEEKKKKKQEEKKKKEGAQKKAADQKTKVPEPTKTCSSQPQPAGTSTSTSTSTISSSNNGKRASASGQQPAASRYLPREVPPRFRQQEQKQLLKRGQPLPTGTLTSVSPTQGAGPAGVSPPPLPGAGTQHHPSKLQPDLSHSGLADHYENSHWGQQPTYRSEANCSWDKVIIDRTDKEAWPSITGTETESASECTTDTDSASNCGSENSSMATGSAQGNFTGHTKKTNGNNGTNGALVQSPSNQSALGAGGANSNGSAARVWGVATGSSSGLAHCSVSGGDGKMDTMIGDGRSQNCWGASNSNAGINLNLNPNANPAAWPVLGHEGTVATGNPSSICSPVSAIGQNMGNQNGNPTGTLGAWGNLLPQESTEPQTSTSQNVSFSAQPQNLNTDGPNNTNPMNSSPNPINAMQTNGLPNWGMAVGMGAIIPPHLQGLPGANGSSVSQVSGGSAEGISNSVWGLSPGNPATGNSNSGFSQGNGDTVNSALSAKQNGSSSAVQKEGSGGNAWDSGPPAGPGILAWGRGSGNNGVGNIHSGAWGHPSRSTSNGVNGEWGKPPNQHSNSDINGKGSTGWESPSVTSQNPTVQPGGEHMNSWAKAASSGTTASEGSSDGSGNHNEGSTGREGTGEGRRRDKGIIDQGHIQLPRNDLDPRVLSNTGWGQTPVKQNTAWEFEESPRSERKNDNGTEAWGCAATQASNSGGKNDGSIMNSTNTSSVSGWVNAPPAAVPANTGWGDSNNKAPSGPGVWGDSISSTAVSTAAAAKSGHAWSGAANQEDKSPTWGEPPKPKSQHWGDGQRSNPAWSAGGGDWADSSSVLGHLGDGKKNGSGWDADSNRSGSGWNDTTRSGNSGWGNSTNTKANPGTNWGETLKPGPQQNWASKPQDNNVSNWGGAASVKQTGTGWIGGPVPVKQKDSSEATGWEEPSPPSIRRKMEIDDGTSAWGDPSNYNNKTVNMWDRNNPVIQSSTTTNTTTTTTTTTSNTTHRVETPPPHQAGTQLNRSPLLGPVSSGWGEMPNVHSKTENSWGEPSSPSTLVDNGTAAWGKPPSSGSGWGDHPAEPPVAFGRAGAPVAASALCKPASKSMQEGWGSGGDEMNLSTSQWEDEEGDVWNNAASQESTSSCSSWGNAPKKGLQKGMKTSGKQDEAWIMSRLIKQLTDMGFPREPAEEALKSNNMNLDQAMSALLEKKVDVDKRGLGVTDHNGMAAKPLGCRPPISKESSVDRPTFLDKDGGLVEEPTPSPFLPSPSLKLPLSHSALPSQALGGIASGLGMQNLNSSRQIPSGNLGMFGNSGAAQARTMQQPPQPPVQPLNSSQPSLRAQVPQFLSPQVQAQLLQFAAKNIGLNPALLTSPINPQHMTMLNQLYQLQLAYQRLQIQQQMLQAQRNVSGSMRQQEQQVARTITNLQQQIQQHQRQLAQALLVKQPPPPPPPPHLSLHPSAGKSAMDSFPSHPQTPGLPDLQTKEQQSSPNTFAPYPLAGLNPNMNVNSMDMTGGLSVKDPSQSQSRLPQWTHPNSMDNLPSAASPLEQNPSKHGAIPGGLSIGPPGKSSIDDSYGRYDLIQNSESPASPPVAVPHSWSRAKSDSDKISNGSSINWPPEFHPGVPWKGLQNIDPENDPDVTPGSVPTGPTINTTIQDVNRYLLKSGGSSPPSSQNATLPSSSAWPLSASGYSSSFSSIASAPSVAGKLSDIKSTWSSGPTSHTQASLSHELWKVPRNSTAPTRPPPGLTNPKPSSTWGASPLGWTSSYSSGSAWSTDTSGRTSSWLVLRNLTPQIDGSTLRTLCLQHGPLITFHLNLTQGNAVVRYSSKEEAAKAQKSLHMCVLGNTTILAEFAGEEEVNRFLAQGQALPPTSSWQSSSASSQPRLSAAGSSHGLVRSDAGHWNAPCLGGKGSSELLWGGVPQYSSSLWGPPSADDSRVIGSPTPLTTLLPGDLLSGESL
UniProt Q9UKV8: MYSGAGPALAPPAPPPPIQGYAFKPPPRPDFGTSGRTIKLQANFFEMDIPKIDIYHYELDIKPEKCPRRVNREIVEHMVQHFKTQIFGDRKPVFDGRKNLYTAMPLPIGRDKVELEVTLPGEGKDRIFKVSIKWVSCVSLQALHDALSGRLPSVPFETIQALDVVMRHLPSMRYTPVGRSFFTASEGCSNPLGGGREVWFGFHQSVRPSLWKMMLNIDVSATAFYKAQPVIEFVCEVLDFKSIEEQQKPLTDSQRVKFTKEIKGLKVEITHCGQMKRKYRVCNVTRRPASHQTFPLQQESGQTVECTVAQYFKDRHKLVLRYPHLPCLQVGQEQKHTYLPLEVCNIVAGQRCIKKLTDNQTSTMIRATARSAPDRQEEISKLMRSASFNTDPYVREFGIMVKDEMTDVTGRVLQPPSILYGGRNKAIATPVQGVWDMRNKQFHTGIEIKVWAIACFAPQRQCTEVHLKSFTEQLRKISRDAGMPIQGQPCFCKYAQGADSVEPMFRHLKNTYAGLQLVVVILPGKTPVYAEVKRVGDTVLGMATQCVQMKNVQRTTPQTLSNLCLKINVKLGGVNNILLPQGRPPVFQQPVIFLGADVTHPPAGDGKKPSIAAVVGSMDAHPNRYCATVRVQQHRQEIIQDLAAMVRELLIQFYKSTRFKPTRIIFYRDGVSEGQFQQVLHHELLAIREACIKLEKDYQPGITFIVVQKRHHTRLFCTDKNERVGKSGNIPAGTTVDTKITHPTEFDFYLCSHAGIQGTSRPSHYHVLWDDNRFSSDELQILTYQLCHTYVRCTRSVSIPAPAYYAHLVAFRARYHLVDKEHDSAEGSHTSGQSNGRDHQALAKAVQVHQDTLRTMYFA

No constants are given. Whether binding was seen depends on the method and setting. In cells and extracts the contact can be indirect. Binding calls can cover weak binding; strength is not graded here.

The assay deals with Myc-tagged NBirA*-TNRC6C (UniProt Q9HCJ0). Nature of the assay: co-IP; lysates of HeLa cells transfected with the Myc-NBirA* and FLAG-CBirA* fusions; anti-Myc or anti-FLAG antibody on magnetic beads, overnight at 4 °C, washes with 50 mM Tris pH 7.4, 300 mM NaCl, 1 mM MgCl2, 0.5% NP-40; western blot; untransfected cells as control.

Consider CBirA*-Ago2 (from UniProt Q9UKV8 1-859), for which the binding entry is recorded as “binds”.
